This note sets out measurements from patent publication US20050130265.

Chains of the proteins cited; added tags and fusions are not shown. Chains listed by the source or under a name are the forms on record and can include a tag or linker.
UniProt Q03267, other isoform, or with tags, fused parts or gaps: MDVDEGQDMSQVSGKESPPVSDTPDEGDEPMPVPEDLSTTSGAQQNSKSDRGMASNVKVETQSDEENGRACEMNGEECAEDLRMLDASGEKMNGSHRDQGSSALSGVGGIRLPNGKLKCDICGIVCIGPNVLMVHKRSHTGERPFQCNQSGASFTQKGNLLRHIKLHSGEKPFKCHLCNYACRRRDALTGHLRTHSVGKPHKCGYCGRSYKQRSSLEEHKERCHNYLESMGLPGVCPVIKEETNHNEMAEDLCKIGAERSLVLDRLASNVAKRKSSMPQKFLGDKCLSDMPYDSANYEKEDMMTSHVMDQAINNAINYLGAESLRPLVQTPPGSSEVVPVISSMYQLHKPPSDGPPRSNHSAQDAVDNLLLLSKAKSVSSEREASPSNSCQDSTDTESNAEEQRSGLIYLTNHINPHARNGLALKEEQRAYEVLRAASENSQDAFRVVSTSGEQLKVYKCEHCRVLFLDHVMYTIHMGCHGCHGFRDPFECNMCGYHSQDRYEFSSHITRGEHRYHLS
Ikaros Ik-2 (expression library clone) (Mus musculus), one chain, as listed by the source: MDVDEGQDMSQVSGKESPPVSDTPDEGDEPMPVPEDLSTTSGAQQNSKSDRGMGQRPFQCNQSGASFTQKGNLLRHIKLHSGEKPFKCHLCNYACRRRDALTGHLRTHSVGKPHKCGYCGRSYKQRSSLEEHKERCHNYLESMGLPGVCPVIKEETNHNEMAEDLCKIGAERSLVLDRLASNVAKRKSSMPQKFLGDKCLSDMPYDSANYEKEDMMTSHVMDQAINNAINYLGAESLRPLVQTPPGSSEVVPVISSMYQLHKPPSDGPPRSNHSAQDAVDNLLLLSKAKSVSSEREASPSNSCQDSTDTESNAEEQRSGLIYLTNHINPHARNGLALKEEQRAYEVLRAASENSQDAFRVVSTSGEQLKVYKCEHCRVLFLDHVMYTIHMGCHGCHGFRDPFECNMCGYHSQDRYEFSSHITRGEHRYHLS

One series addresses Ikaros (GST fusion) (UniProt Q03267). The series is described as follows: EMSA. The following applies: described as high affinity Ikaros site; 0.5 ug protein; purified recombinant protein; protein details: GST. A general note: A gel shift assay detects complexes by their altered migration in electrophoresis.
In series [1] the test system is Ikaros Ik-2 (expression library clone) (Mus musculus). The series is described as follows: binding assay. The following applies: southwestern library screen; isolated Ikaros clone; protein in a lysate after overexpression; label: radiolabeled.
Series [2] has as its target Ikaros (native complexes in thymus/spleen nuclear extract) (Mus musculus) (UniProt Q03267). The series is described as follows: EMSA. The following applies: four complexes in wild-type thymus and spleen extract; absent in Ikaros -/- spleen; abrogated by Ikaros antibody; protein in an extract; label: end-labeled.

For part of these data: At least one result comes from cells or an extract, where the contact may be indirect. For part of these data: For at least one entry, the source does not settle the construct or the ends of the probe.

As to “TCAGCTTTTGGGAATACCCTGTCA (double strand) [IkBS1]”, the binding result in the series with Ikaros (GST fusion) is recorded as “binds”.

“AGAAGTTTCCATAAGATGATGAATGGGGGTGGCAGAGA (double strand) [CD3 delta enhancer element (multimerized)]”: the binding result in series [1] is on record as “binds”.

On to “TCAGCTTTTGGGAATGTATTCCCTGTCA (double strand) [IK-BS4]”, for which, in series [2], the binding result was “binds”.
